## Library screen at single concentrations

Chains of the proteins cited; added tags and fusions are not shown.
UniProt P9WFT3, whole entry: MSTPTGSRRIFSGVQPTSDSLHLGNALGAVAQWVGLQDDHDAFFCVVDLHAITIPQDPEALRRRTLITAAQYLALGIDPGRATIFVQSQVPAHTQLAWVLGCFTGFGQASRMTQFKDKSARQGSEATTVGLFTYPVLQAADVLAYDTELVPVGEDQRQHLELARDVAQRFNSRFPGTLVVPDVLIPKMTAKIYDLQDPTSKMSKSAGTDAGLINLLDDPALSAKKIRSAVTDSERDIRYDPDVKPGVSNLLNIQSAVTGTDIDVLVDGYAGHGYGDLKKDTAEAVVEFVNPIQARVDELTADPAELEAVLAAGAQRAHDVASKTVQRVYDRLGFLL

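Enzyme assay of tryptophanyl-tRNA synthetase; the read-out is not stated. Target: Tryptophan-tRNA ligase, Mycobacterium tuberculosis (UniProt P9WFT3). Compounds at 10 µM. Higher most likely means stronger inhibition; the record gives no direction and few retests gave an IC50. Size under these conditions: about 65,000 compounds, about 64 of them at 50% or above in at least one test.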

The filed quantity is “Percent Effect” (%).
The controls that fix the scale are not given in the record; negative values are as filed.
This is an unselected part of the compounds tested.

For CC(C)NC(=O)C(c1ccccc1)N1CCn2c(nnc2C2CC2)C1 (stereo unspecified) the result was -0.6681%. CC(C)n1[nH]c(=O)c2c1NC(=O)CC2c1ccncc1 (stereo unspecified) gave 0.618%. For Cc1cc(CN(C)S(=O)(=O)N2CCCC2c2ccc(C)o2)no1 (stereo unspecified) the result was 1.242%. CC(C)(C)c1coc([C@@H]2COCCN2Cc2cnc3ccccc3c2)n1 gave -6.331%. COCCc1noc(CN2CCCC2c2c(C)nn(C)c2OC)n1 (stereo unspecified) gave 1.661%. O=S(=O)(Cc1ccccc1Cl)NC(CO)c1ccco1 (stereo unspecified) gave 0.9336%. Result for Cc1ccc(C(=O)NC2CCN(Cc3noc(CC(C)C)n3)CC2)s1 was -1.574%. CCN(CC)S(=O)(=O)NCC1COc2ccccc2O1 (stereo unspecified) gave 3.988%.

CCCNC(=O)C(C)NC(=O)CCc1ccccc1Br (stereo unspecified) gave -0.9479%. O=C(CCCC(=O)NCc1cccc(Br)c1)NCCN1CCCC1 read 1.508%. Cc1nc2c(c(=O)[nH]1)CCN(C(=O)c1[nH]nc3c1CC(C)CC3)C2 (stereo unspecified) gave -4.454%. O=C(c1nc2c(o1)CN(CC1CC1)C2)N1CCCC1 gave 1.841%. COC(=O)CCCNC(=O)N1CCc2c(F)ccc(F)c2C1 gave 0%. CC(NC(=O)NCCCN(C)S(C)(=O)=O)c1ccc(F)cc1 (stereo unspecified) gave 29.78%. Cc1cnc(N2CCC3(C2)C(=O)N(C)CCN3Cc2cccnc2)nc1 (stereo unspecified) read 4.257%. Cc1cnc(NC(=O)C(C)n2ccc(C(F)(F)F)n2)s1 (stereo unspecified) read 3.661%.

O=C(CN1CCCCC1Cn1cncn1)NCCC1=CCCCC1 (stereo unspecified) read -4.013%. Result for CCOCCn1c(=O)n(Cc2ccccc2F)c2cc(C(=O)O)cnc21 was 18.49%. Result for O=C(c1onc2ccccc12)N1CCC2(CCCNC2)C1 (stereo unspecified) was 4.846%. Result for CCNC(c1ccc(Cl)cc1)c1cccnc1 (stereo unspecified) was 8.377%. CCCn1ncc(C2CC(=O)NCc3nc4cc(C)ccn4c32)c1C (stereo unspecified) read -3.818%. Result for Cc1nn(C)c(C)c1CNC(=O)c1cc(NC(=O)C2CC2)n(C)n1 was 0%. With CC(=O)N1CCC[C@@H](NCc2ccc(F)cc2)[C@@H]1c1ccc(C)s1 the screen gave -5.176%. Result for Cc1occc1C(=O)Nc1ccnc(OC2CCOC2)c1 (stereo unspecified) was 1.137%.

With CN(C)c1cc(C2CCCN(Cc3cnn(C)c3)C2)ccn1 (stereo unspecified) the screen gave -7.326%. c1ccc(CCCN2CC[C@H](c3nnc(-c4ccccc4)o3)C2)cc1 gave -2.485%. CC(Nc1ccc(CCN2CCCCC2)cc1)C(=O)N(C)CCC#N (stereo unspecified) gave -3.995%. Result for CN(CCCO)C(=O)c1cc(COc2ccc3c(c2)CCCC3)on1 was 1.34%. Result for CC(C)(C)n1ncc2c1CCCC2NCc1cccc(C(N)=O)c1 (stereo unspecified) was -1.651%. With COc1ccc(C2CCCCCN2Cc2cn(C)nc2C)cc1 (stereo unspecified) the screen gave 0.5869%. N#Cc1c2n(c3c(=O)[nH]cnc13)CCCC2 gave -1.464%. COc1cccc(SCC(=O)N2CCCC(N3CCCC3=O)C2)c1 (stereo unspecified) read 0.8974%.

COCCNC(=O)CCNc1ccc(Cl)cn1 read -4.421%. For O=C(NCCC1CCCCO1)c1coc(COc2ccc(F)cc2)n1 (stereo unspecified) the result was 2.124%. Cc1cccc(OCCC(=O)N2CCCN(C(N)=O)CC2)c1C gave -3.226%. Result for O=C(c1cccc2c1OCO2)N1CCC(N2CCCC2)CC1 was -5.979%. With CSCc1noc(CN(C)C(C)c2nc(C)sc2C)n1 (stereo unspecified) the screen gave 0.3882%. With O=C(NCCCC(=O)N1Cc2ccccc2C1)NCc1cccnc1 the screen gave -0.5452%. With Cc1cc(F)cc(NC(=O)N(C)CC(C)(CO)CO)c1 the screen gave -0.4078%. Result for OC[C@H]1CC[C@]2(CC1)CN(Cc1ccccc1F)Cc1ccccc1O2 was 1.254%.

With O=C(c1cnc2n1CCCC2)N1CCCC1 the screen gave -7.065%. Result for O=C(c1cccnc1)N1C[C@@H]2CC[C@H](C1)N(Cc1cccc(Cl)c1F)C2 was -1.069%. COCC(=O)N1CCCC1c1cc(Nc2nnc(C)s2)nc(C)n1 (stereo unspecified) gave 4.053%. CCc1nnsc1C(=O)N1CCOC(c2nc(C(C)C)n[nH]2)C1 (stereo unspecified) read -4.502%. COC(=O)C(C)N(Cc1cc(C)on1)C1CC1 (stereo unspecified) gave -5.602%. CCC(C)NC(=O)Cc1c(C)nc2c(c1C)c(=O)[nH]n2C (stereo unspecified) read -0.58%. For CN(C)CCOCC1CN(Cc2cccc(F)c2)Cc2nccn2C1 (stereo unspecified) the result was -1.119%. With CNc1cc(C2CN(C(=O)c3cscn3)CCO2)nc(C)n1 (stereo unspecified) the screen gave 13.31%.

For Cc1nc(CN2CCC(N(C)Cc3noc(C(C)C)n3)C2)oc1C (stereo unspecified) the result was 3.011%. With CCn1nc2c(cc1=O)CN(CCOc1ccccc1C#N)CC2 the screen gave 3.661%. With CN(Cc1nc(C(F)(F)F)cs1)C(=O)CCc1cccnc1 the screen gave 1.419%. For COc1ccc(NC2CCc3c2[nH]c(=O)n(C2CCCCC2)c3=O)cc1 (stereo unspecified) the result was -2.171%. CN(C)CC1CCCCN1C(=O)c1ccc(N2CCOCC2)cc1 (stereo unspecified) gave 5.286%. Cc1ccsc1CN(C)Cn1nccc1-c1cccnc1 read -4.722%. For O=C(CCc1nc2ccccc2[nH]1)N1CCCC(n2cccn2)C1 (stereo unspecified) the result was 4.708%. With C[C@H]1CN(Cc2cccc(F)c2)C[C@@]12CCN(CC(=O)N(C)C)C2=O the screen gave -4.797%.

5 of the entries, repeated:

structure,effect
CC(C)(C)n1ncc2c1CCCC2NCc1cccc(C(N)=O)c1 (stereo unspecified),-1.651%
COCCNC(=O)CCNc1ccc(Cl)cn1,-4.421%
Cc1cnc(NC(=O)C(C)n2ccc(C(F)(F)F)n2)s1 (stereo unspecified),3.661%
COc1ccc(NC2CCc3c2[nH]c(=O)n(C2CCCCC2)c3=O)cc1 (stereo unspecified),-2.171%
COCC(=O)N1CCCC1c1cc(Nc2nnc(C)s2)nc(C)n1 (stereo unspecified),4.053%

Source: ChEMBL document CHEMBL3988442, “University of Dundee, Small-Polar-MMV Screening Library” (2021).